# Source: the supplement of paper PMC7666118
# Sequences of proteins named here, by UniProt entry; tags and fusion partners are left off. A change or cut given only in a name is not applied to a line headed by its entry.
# UniProt O00483, whole entry: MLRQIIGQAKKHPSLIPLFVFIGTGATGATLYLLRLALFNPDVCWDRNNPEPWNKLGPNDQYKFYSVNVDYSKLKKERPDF
# UniProt P21359: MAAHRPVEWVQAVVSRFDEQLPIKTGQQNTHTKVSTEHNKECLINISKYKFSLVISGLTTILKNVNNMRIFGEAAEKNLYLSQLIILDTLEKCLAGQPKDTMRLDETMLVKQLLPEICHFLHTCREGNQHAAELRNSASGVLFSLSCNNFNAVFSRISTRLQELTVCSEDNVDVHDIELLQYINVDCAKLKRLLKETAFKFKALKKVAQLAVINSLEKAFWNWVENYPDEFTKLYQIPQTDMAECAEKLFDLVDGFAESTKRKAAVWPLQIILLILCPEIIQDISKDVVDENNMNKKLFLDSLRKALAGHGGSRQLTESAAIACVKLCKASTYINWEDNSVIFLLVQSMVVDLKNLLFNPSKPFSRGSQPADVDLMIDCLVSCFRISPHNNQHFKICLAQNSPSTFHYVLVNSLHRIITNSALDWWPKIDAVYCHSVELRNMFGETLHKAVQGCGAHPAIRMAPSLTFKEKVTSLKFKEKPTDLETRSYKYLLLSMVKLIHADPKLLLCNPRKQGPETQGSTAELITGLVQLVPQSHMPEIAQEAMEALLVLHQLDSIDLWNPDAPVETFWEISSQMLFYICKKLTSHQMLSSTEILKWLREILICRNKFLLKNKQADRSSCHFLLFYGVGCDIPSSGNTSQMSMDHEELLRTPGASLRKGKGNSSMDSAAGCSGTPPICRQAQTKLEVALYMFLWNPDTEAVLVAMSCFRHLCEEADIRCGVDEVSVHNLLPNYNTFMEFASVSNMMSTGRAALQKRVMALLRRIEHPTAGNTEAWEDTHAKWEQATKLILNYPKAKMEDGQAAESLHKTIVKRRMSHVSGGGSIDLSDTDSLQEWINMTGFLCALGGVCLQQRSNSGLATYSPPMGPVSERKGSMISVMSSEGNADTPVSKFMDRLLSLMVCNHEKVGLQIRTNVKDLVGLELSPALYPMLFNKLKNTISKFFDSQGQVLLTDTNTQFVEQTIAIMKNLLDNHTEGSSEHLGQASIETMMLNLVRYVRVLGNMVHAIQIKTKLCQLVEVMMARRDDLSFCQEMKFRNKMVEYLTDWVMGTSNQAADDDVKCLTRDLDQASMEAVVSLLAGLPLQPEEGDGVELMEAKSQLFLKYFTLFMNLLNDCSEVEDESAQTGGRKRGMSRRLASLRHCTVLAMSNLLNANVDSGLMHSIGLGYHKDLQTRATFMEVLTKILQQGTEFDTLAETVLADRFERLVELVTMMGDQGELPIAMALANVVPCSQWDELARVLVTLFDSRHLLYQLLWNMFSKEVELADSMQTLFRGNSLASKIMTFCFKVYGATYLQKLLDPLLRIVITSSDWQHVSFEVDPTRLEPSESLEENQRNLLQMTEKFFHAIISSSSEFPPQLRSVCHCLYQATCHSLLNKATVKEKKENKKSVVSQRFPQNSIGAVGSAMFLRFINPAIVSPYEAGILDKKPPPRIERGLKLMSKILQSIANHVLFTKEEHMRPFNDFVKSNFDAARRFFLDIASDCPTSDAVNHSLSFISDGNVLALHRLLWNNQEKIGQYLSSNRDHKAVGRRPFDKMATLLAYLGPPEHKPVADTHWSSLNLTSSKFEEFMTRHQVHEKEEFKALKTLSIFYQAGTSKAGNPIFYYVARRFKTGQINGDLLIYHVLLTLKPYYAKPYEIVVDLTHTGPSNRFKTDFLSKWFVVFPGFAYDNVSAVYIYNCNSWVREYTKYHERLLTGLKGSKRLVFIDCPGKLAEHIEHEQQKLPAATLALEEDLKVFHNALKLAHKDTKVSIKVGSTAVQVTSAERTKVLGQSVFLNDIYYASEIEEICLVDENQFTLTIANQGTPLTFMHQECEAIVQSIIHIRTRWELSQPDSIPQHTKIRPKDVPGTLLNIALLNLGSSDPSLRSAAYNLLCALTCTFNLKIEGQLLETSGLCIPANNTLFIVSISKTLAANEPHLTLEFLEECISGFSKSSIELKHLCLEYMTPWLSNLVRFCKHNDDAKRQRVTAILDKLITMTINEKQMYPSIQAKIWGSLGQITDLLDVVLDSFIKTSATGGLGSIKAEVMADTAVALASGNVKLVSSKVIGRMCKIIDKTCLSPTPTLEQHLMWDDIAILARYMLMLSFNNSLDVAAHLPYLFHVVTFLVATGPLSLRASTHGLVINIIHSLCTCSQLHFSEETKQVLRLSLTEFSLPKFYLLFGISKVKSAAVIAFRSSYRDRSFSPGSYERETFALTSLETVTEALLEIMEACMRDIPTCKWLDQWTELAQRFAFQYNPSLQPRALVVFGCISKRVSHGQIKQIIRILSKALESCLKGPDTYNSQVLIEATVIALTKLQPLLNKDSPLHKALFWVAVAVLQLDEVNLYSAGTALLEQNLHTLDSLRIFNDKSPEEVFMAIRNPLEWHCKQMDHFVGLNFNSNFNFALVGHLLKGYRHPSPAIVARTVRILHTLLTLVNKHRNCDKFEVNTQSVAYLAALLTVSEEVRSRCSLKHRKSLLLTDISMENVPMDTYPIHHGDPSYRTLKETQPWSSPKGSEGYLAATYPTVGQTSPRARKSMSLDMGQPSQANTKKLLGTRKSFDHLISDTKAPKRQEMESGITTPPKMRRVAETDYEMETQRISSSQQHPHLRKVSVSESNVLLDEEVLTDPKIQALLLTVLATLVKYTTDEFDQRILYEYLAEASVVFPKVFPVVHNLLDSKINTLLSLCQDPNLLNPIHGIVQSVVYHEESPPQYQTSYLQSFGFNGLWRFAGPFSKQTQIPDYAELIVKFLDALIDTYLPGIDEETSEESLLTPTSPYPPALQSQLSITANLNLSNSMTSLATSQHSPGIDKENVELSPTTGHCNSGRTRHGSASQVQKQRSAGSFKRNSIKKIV
# UniProt Q9BUK6: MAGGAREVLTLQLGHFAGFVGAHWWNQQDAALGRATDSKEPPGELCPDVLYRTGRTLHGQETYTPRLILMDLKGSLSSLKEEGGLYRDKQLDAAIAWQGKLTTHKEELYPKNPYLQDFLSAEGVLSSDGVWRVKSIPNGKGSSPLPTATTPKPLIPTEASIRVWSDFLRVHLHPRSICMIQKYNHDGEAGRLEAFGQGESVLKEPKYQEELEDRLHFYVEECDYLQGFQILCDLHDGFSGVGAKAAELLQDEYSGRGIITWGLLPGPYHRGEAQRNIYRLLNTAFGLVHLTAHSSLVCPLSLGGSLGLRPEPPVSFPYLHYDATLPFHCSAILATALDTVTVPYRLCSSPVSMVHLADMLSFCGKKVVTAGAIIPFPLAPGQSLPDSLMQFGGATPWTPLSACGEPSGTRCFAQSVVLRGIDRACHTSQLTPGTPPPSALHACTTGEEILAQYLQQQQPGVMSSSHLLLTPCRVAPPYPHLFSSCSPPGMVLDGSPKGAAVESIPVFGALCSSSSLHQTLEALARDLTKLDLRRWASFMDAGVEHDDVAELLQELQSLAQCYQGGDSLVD
# UniProt Q9NPP4, whole entry: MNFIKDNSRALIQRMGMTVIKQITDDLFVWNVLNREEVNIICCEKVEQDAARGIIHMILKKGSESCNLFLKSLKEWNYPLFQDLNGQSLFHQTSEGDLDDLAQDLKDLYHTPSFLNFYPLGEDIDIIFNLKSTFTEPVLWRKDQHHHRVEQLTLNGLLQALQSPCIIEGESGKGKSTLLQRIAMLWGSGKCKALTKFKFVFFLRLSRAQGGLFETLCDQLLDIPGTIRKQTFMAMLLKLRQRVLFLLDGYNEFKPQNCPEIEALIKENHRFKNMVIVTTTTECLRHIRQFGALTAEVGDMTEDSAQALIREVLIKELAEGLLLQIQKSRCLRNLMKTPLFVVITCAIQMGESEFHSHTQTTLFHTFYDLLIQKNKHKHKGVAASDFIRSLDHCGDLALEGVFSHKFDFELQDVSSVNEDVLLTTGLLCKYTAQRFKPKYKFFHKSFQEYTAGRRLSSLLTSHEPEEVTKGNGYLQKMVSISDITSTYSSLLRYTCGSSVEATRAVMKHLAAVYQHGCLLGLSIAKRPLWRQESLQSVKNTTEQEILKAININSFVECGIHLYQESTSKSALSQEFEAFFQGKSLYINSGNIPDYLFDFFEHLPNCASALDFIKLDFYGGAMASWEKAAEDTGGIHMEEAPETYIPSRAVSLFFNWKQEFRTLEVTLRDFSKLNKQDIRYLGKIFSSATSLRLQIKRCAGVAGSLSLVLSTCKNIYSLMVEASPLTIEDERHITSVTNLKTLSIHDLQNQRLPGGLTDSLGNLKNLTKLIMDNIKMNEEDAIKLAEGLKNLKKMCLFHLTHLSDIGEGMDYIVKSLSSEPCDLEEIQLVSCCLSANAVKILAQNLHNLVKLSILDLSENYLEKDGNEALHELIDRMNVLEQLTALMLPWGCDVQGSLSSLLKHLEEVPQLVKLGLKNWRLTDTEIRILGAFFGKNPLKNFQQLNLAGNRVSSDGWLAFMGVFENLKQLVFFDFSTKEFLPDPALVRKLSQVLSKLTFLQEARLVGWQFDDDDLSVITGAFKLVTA
# UniProt Q9HAN9, whole entry: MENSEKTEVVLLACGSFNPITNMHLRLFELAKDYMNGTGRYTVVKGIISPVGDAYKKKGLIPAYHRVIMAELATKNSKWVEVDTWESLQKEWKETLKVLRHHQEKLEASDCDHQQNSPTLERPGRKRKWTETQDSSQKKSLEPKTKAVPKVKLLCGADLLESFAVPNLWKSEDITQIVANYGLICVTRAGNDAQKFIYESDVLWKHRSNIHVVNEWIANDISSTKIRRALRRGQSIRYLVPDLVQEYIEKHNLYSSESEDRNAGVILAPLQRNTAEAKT
# UniProt Q96IV0: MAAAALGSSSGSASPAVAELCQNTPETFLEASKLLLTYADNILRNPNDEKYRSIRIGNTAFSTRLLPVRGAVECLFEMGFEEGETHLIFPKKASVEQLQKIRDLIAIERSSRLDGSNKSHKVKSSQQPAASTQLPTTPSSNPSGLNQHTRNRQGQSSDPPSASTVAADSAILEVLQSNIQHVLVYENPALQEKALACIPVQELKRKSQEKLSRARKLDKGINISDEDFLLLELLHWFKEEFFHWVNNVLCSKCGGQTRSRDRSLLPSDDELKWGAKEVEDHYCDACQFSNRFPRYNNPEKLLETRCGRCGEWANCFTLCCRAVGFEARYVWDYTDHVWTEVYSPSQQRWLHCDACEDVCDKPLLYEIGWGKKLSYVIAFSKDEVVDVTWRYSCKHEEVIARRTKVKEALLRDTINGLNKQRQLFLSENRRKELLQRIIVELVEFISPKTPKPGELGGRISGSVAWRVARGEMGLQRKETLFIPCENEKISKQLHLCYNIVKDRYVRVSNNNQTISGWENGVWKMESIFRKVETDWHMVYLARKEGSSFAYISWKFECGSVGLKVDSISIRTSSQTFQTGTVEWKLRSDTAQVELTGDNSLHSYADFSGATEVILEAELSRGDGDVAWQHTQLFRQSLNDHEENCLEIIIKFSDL
# UniProt Q92542, whole entry: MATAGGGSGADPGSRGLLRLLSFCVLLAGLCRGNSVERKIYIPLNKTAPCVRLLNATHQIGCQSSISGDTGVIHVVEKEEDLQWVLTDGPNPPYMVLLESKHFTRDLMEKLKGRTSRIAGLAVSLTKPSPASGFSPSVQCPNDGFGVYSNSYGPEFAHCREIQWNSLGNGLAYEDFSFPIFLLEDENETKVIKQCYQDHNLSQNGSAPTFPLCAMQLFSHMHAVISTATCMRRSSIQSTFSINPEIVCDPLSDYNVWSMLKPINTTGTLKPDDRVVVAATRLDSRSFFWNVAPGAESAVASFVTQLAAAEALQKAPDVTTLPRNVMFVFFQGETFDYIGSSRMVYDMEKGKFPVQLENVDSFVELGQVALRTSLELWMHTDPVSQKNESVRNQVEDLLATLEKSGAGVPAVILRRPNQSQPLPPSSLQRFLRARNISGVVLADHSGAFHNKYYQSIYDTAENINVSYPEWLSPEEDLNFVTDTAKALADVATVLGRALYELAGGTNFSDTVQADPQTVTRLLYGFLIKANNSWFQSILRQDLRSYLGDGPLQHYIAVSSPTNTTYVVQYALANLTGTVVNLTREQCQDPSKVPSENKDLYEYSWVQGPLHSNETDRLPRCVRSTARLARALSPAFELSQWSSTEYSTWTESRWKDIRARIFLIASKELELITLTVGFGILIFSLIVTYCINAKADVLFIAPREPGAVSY
# The list shows a part of the results.
# Compound: COc1ccc(Cn2ccc3ccc(C(=O)NO)cc32)cc1
# Assay: dose-dependent thermal stabilisation call (2D-TPP, DLPTP, 10% FDR) (binary (1 = stabilised)); higher = stabilised by the compound
# Settings: system: HL-60 intact cells; concentration range 0.04-10 µM
row,Target,dose-dependent thermal stabilisation call
1,NDUFA4 (UniProt O00483),inactive: 0
2,NF1 (UniProt P21359),inactive: 0
3,NOC2L (UniProt Q9Y3T9),inactive: 0
4,MSTO1 (UniProt Q9BUK6),inactive: 0
5,NLRC4 (UniProt Q9NPP4),inactive: 0
6,NCAPH (UniProt Q15003),inactive: 0
7,NMNAT1 (UniProt Q9HAN9),inactive: 0
8,NGLY1 (UniProt Q96IV0),inactive: 0
9,NCSTN (UniProt Q92542),inactive: 0
10,NHEDC2 (UniProt Q86UD5),inactive: 0
